Measurements as given in PMC5836524.
Substitutions are numbered along the chain they refer to. Numbers in names are those of the source. These are yes or no findings as the source states them, for the method shown. In cells and extracts the contact can be indirect. Some entries that bind do so weakly or less than the wild type. Sequences can lack the tags named with a protein. Each block holds one binder with its values, some of them ahead of it.

Amino acid sequences for entries named in this document (tags omitted). Residues count along the entry.
UniProt P29323, residues 19-1055: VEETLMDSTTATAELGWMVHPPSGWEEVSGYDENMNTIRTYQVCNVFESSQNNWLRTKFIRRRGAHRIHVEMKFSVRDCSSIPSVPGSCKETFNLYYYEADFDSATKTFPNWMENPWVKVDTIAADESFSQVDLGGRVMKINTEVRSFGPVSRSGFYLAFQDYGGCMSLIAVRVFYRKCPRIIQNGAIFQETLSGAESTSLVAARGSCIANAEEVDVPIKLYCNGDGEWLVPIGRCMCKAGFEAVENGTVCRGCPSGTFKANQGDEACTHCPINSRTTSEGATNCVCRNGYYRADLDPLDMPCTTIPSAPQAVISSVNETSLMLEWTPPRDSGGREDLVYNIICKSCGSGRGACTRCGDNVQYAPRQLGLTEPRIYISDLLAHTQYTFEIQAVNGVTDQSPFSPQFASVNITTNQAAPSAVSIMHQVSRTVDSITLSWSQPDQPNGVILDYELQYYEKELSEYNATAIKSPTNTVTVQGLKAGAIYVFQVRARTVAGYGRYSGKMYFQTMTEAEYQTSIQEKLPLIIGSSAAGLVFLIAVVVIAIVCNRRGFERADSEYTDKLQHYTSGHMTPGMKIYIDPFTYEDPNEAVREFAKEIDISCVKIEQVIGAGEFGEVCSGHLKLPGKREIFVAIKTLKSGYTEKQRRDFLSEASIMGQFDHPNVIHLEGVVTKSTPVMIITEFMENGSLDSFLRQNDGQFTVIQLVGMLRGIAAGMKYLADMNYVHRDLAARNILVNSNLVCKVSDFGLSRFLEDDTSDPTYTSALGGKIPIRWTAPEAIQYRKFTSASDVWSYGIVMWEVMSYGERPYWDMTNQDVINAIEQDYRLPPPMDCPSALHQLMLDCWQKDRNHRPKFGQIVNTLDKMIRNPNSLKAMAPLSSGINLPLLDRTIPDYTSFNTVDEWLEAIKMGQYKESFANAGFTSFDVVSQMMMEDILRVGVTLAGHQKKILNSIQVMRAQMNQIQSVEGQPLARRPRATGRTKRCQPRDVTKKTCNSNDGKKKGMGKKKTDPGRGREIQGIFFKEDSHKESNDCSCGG
GST-intersectin-1 EH1 (aa 14-108) (Q15811, residues 14-108): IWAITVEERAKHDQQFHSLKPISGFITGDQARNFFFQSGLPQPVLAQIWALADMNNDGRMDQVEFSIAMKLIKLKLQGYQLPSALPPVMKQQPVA
GST-intersectin-1 EH2 (aa 214-309) (Q15811, residues 214-309): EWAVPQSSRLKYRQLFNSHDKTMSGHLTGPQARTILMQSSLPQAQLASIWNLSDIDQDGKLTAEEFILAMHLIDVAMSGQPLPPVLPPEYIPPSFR
UniProt Q00610, residues 2-579: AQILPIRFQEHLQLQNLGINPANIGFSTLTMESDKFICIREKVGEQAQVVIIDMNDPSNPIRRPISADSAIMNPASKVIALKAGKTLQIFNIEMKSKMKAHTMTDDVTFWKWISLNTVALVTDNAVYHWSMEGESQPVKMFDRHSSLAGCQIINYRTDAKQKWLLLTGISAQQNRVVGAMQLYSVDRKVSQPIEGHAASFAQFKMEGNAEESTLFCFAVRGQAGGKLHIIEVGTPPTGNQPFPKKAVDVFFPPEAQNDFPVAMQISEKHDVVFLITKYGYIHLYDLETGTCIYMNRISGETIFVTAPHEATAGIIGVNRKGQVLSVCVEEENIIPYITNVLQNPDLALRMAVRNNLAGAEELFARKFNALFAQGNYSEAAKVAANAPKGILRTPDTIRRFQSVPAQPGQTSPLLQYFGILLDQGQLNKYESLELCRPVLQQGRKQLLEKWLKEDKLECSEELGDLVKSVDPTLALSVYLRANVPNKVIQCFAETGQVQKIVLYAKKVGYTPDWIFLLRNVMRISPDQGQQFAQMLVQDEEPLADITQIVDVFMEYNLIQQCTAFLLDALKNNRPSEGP
UniProt P62944, residues 616-937: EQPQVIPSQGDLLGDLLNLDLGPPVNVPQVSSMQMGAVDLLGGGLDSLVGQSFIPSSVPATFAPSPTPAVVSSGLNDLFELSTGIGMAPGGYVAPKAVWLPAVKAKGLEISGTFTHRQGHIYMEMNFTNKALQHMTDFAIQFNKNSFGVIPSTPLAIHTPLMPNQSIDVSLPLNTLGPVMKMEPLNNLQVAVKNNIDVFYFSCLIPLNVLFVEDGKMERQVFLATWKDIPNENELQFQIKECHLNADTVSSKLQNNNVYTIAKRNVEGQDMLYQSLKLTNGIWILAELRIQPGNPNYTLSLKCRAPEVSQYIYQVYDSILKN

Columns and labels:
Flag-EphB2 = Flag-EphB2 (UniProt P29323); test: co-IP; HEK293T cells expressing Flag-EphB2, EGFP-Numb and myc-Eps15R; cells stimulated with 1 μg/mL pre-clustered ephrinB1-Fc for 20 min at 37°C before lysis; Flag antibody for immunoprecipitation; Western blot
[1] = molecular target: T1, GST-Eps15 EH2 (aa 121-215) (UniProt P42566); test: pull-down; GST-tagged EH domains immobilised on beads, incubated with lysates from EGFP-Numb expressing HEK293T cells; Western blot; only the target purified
T1 sequence: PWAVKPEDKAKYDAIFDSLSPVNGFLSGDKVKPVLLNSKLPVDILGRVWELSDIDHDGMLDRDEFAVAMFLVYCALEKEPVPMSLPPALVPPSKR

[2] = molecular target: T2, GST-intersectin-2 EH2 (aa 236-331) (UniProt Q9NZM3); test: as above
T2 sequence: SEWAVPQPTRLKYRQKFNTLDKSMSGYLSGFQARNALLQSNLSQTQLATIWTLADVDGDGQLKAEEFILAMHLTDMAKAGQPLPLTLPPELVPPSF

[3] = molecular target: GST-intersectin-1 EH2 (aa 214-309) (UniProt Q15811); test: as above
[4] = molecular target: GST-intersectin-1 EH1 (aa 14-108) (UniProt Q15811); test: as above
[5] = molecular target: T3, GST-intersectin-2 EH1 (aa 14-108) (UniProt Q9NZM3); test: as above
T3 sequence: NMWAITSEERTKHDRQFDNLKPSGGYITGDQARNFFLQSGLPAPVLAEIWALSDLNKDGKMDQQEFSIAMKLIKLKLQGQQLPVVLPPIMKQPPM

[6] = molecular target: GST-clathrin heavy chain terminal domain (aa 2-579) (human) (UniProt Q00610); test: pull-down; GST-clathrin heavy chain domains on beads incubated with detergent extracts of Sf9 cells expressing full-length His-Eps15R; immunoblot for the His tag; only the target purified
[7] = molecular target: GST-AP2-β2-appendage with hinge (aa 616-937) (rat) (UniProt P62944); test: pull-down; GST-AP2-β-appendage with hinge on beads incubated with lysates from HeLa cells expressing EGFP-Eps15R wild type or the F703A, F722A, F728A mutant; clathrin and EGFP immunoblotting; only the target purified

- binding (Flag-EphB2): binds
- binding [1]: binds
- binding [2]: no binding
- binding [3]: no binding
- binding [4]: no binding
- binding [5]: no binding
B1: EGFP-Numb (protein, UniProt P49757 1-651)
chain: MNKLRQSFRRKKDVYVPEASRPHQWQTDEEGVRTGKCSFPVKYLGHVEVDESRGMHICEDAVKRLKAERKFFKGFFGKTGKKAVKAVLWVSADGLRVVDEKTKDLIVDQTIEKVSFCAPDRNFDRAFSYICRDGTTRRWICHCFMAVKDTGERLSHAVGCAFAACLERKQKREKECGVTATFDASRTTFTREGSFRVTTATEQAEREEIMKQMQDAKKAETDKIVVGSSVAPGNTAPSPSSPTSPTSDATTSLEMNNPHAIPRRHAPIEQLARQGSFRGFPALSQKMSPFKRQLSLRINELPSTMQRKTDFPIKNAVPEVEGEAESISSLCSQITNAFSTPEDPFSSAPMTKPVTVVAPQSPTFQANGTDSAFHVLAKPAHTALAPVAMPVRETNPWAHAPDAANKEIAATCSGTEWGQSSGAASPGLFQAGHRRTPSEADRWLEEVSKSVRAQQPQASAAPLQPVLQPPPPTAISQPASPFQGNAFLTSQPVPVGVVPALQPAFVPAQSYPVANGMPYPAPNVPVVGITPSQMVANVFGTAGHPQAAHPHQSPSLVRQQTFPHYEASSATTSPFFKPPAQHLNGSAAFNGVDDGRLASADRHTEVPTGTCPVDPFEAQWAALENKSKQRTNPSPTNPFSSDLQKTFEIEL

- binding [7]: binds
B4: EGFP-Eps15R wild type, full-length (aa 1-907) (protein, UniProt Q60902 1-907)
chain: MAAPLVPLSQQIPGGNPLYESYYKQVDPAYTGRVGASEAALFLKKSGLSDIILGKIWDLADPEGKGFLDKQGFYVALRLVACAQSGHEVTLSSLSLTMPPPKFHDTSSPLMATQSSAETHWAVRVEEKAKFDGIFESLLPVNGLLSGDKVKPVLMNSKLPLDVLGRVWDLSDIDKDGHLDRDEFAVAMHLVYRALEKEPVPSILPPPLIPPSKRKKTVFAGAVPVLPASPPPKDSLRSTPSHGSVSSLNSTGSLSPKHSVKQPPVAWVVPVADKMRFDEIFLKTDLDLDGYVSGQEVKEIFMHSGLTQNLLAHIWALADTRQTGKLSKEQFALAMYFIQQKVSKGIDPPQVLSPDMVPPSERGTPIPDSSSTLASGEFTGVKELDDISQEIAQLQREKYSLEQDIREKEEAIRQKTSEVQELQNDLDRETSSLQELEAQKQDAQDRLDEMDQQKAKLRDMLSDVRQKCQDETQTISSLKTQIQSQESDLKSQEDDLNRAKSELNRLQQEETQLEQSIQAGRAQLETILRSLKCTQDDINQARSKLSQLQESHLEAHRSLEQYDQVPDGVSGTSLPDLATLNEGILLAERGGFGAMDDPFKNKALLFSNNSQELHPDPFQAEDPFKSDPFKGADPFKGDPFQSDPFSEQQTAATDPFGGDPFKESDPFHSSSSDDFFKKQTKNDPFTSDPFTKNPSLPSKLDPFESSDPFSSSSISSKGSDPFGTLDPFGSSSFSSAEGFADFSQMSKPPPSGPFSSSLGGTGFSDDPFKSKQDTPALPPKKPAPPRPKPPSGQSTPVSQLGSSDFPESPDPFQPLGADSGDPFQNKKGFGDPFSGKDPFAPSSSAKPPKTSSSGFADFTSFGNEEQQLAWAKRESEKAEQERLARLRRQEQEDLELAIALSKADMPA

The next lines start with the binder.

B2: full-length His-Eps15R (protein, UniProt Q60902 1-907)
chain: B4 chain
- binding [6]: binds

B3: EGFP-Eps15R F703A/F722A/F728A triple mutant (protein, UniProt Q60902 1-907)
chain: B4 chain with F703A, F722A, F728A
- binding [7]: binds
